# The supplement of paper PMC8728848
# The other results are listed elsewhere or left out.
# B1: Epa20 (Candida glabrata) (protein)
# chain: MGSSHHHHHHSSGLVPRGSHMASSNIPNNYPLGCSNKYSGHLPGLKMELYSYNYVNPRHPDPQNPGKLDQLYDPNLLGTYECFDSSYKDINYPRVGYKSKTLIGRSDGVSGILNFNFVPPWGCMPQKGQLPPAYNFKSNITLSNFTMILFGYFKPKISGNHIFSLHGDDLIYLNFGAGNAFDCCRQESSADNFGNYQAFSLWGINWEKKTLTVYLDMNTYYPIRIFYNNRDYQAIFNFSFKTEFDSSPVIDFQDYFFFLRDIDGGCPGEV
# What was measured:
# Assay in all cases: glycan array binding signal (z-score within array); higher = stronger binding
# Conditions in all cases: glycan notation: IUPAC condensed, linker removed
# Neu5Ac(a2-8)Neu5Ac = biological target: Neu5Ac(a2-8)Neu5Ac
# Summary of the method: (§1)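 Glycan array data came from 3228 arrays in the Consortium for Functional Glycomics database, and only arrays with an available protein sequence were kept. Glycan names were put into IUPAC-condensed notation, and columns mapping to the same glycan were averaged. The binding signal is a within-array Z-score, averaged across arrays of one protein sequence run at different concentrations or buffers and across linkers. A negative Z-score can be read as non-binding.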
# [1] = biological target: Neu5Ac(a2-8)Neu5Ac(a2-3)Gal(b1-3)GalNAc(b1-4)[Neu5Ac(a2-3)]Gal(b1-4)Glc
# Summary of the method: as §1
# [2] = biological target: Neu5Ac(a2-8)Neu5Ac(a2-3)Gal(b1-3)GalNAc(b1-4)[Neu5Ac(a2-8)Neu5Ac(a2-3)]Gal(b1-4)Glc
# Summary of the method: as §1
# [3] = biological target: Neu5Ac(a2-8)Neu5Ac(a2-3)Gal(b1-4)Glc
# Summary of the method: as §1
# [4] = biological target: Neu5Ac(a2-8)Neu5Ac(a2-3)Gal(b1-4)GlcNAc
# Summary of the method: as §1
# [5] = biological target: Neu5Ac(a2-8)Neu5Ac(a2-3)[Gal(b1-3)GalNAc(b1-4)]Gal(b1-4)Glc
# Summary of the method: as §1
# [6] = biological target: Neu5Ac(a2-8)Neu5Ac(a2-3)[GalNAc(b1-4)]Gal(b1-4)Glc
# Summary of the method: as §1
# [7] = biological target: Neu5Ac(a2-8)Neu5Ac(a2-8)Neu5Ac
# Summary of the method: as §1
# [8] = biological target: Neu5Ac(a2-8)Neu5Ac(a2-8)Neu5Ac(a2-3)Gal(b1-4)Glc
# Summary of the method: as §1
# [9] = biological target: Neu5Ac(a2-8)Neu5Ac(a2-8)Neu5Ac(a2-3)[Gal(b1-3)GalNAc(b1-4)]Gal(b1-4)Glc
# Summary of the method: as §1
# [10] = biological target: Neu5Ac(a2-8)Neu5Ac(a2-8)Neu5Ac(a2-3)[GalNAc(b1-4)]Gal(b1-4)Glc
# Summary of the method: as §1
# [11] = biological target: Neu5Ac(a2-8)Neu5Ac(a2-8)Neu5Ac(a2-8)Neu5Ac(a2-3)[GalNAc(b1-4)]Gal(b1-4)Glc
# Summary of the method: as §1
# [12] = biological target: Neu5Ac(a2-8)Neu5Gc(a2-3)Gal(b1-4)GlcNAc
# Summary of the method: as §1
# [13] = biological target: Neu5Ac(b2-6)Gal(b1-4)GlcNAc
# Summary of the method: as §1
# Neu5Ac(b2-6)GalNAc = biological target: Neu5Ac(b2-6)GalNAc
# Summary of the method: as §1
# [14] = biological target: Neu5Ac9Ac(a2-3)Gal(b1-3)GlcNAc
# Summary of the method: as §1
# [15] = biological target: Neu5Ac9Ac(a2-3)Gal(b1-4)GlcNAc
# Summary of the method: as §1
# [16] = biological target: Neu5Ac9Ac(a2-6)Gal(b1-4)GlcNAc
# Summary of the method: as §1
# [17] = biological target: Neu5Gc(a2-3)Gal(b1-3)GlcNAc
# Summary of the method: as §1
# [18] = biological target: Neu5Gc(a2-3)Gal(b1-3)[Fuc(a1-4)]GlcNAc
# Summary of the method: as §1
# Neu5Gc(a2-3)Gal(b1-4)Glc = biological target: Neu5Gc(a2-3)Gal(b1-4)Glc
# Summary of the method: as §1
# [19] = biological target: Neu5Gc(a2-3)Gal(b1-4)GlcNAc
# Summary of the method: as §1
# [20] = biological target: Neu5Gc(a2-3)Gal(b1-4)GlcNAc(b1-3)Gal(b1-4)GlcNAc(b1-2)Man(a1-3)[Neu5Gc(a2-3)Gal(b1-4)GlcNAc(b1-3)Gal(b1-4)GlcNAc(b1-2)Man(a1-6)]Man(b1-4)GlcNAc(b1-4)GlcNAc
# Summary of the method: as §1
# [21] = biological target: Neu5Gc(a2-3)Gal(b1-4)[Fuc(a1-3)]GlcNAc
# Summary of the method: as §1
# [22] = biological target: Neu5Gc(a2-6)Gal(b1-4)GlcNAc
# Summary of the method: as §1
# Neu5Gc(a2-6)GalNAc = biological target: Neu5Gc(a2-6)GalNAc
# Summary of the method: as §1
# [23] = biological target: Neu5Gc(a2-8)Neu5Ac(a2-3)Gal(b1-4)GlcNAc
# Summary of the method: as §1
# [24] = biological target: Neu5Gc(a2-8)Neu5Gc(a2-3)Gal(b1-4)GlcNAc
# Summary of the method: as §1
# [25] = biological target: Neu5Gc(a2-8)Neu5Gc(a2-3)Gal(b1-4)GlcNAc(b1-3)Gal(b1-4)GlcNAc
# Summary of the method: as §1
# [26] = biological target: Neu5Gc(a2-8)Neu5Gc(a2-6)Gal(b1-4)GlcNAc
# Summary of the method: as §1
# [27] = biological target: Neu5Gc(b2-6)Gal(b1-4)GlcNAc
# Summary of the method: as §1
binder,measurement,setting,value
B1,glycan array binding signal (z-score),Neu5Ac(a2-8)Neu5Ac,-0.089
same,glycan array binding signal (z-score),[1],0.409
same,glycan array binding signal (z-score),[2],-0.008
same,glycan array binding signal (z-score),[3],-0.689
same,glycan array binding signal (z-score),[4],-0.561
same,glycan array binding signal (z-score),[5],-0.512
same,glycan array binding signal (z-score),[6],-0.398
same,glycan array binding signal (z-score),[7],-0.084
same,glycan array binding signal (z-score),[8],0.317
same,glycan array binding signal (z-score),[9],0.62
same,glycan array binding signal (z-score),[10],-0.236
same,glycan array binding signal (z-score),[11],-0.02
same,glycan array binding signal (z-score),[12],-0.758
same,glycan array binding signal (z-score),[13],-0.461
same,glycan array binding signal (z-score),Neu5Ac(b2-6)GalNAc,-0.57
same,glycan array binding signal (z-score),[14],-0.388
same,glycan array binding signal (z-score),[15],-0.876
same,glycan array binding signal (z-score),[16],-0.728
same,glycan array binding signal (z-score),[17],-0.321
same,glycan array binding signal (z-score),[18],-0.17
same,glycan array binding signal (z-score),Neu5Gc(a2-3)Gal(b1-4)Glc,0.046
same,glycan array binding signal (z-score),[19],-0.19
same,glycan array binding signal (z-score),[20],0.137
same,glycan array binding signal (z-score),[21],-0.003
same,glycan array binding signal (z-score),[22],0.013
same,glycan array binding signal (z-score),Neu5Gc(a2-6)GalNAc,-1.15
same,glycan array binding signal (z-score),[23],-0.522
same,glycan array binding signal (z-score),[24],-0.62
same,glycan array binding signal (z-score),[25],-0.667
same,glycan array binding signal (z-score),[26],-0.457
same,glycan array binding signal (z-score),[27],0.361

# Two records picked at random from the list so far, as already listed:
binder,measurement,setting,value
B1,glycan array binding signal (z-score),[21],-0.003
same,glycan array binding signal (z-score),[12],-0.758
